Measurements published in PMC10898606.
These are yes or no findings as the source states them, for the method shown. Binding seen in cells or lysates may run through a third protein. Binding calls can cover weak binding; strength is not graded here. Tags and fused reporters may be left off the sequences shown.

B1: eIF2β-cLUC (protein, UniProt Q41969 1-268)
chain: MADEINEIREEQEQLAPFDPSKKKKKKKVVIQEPVEDLAESSQTEKSDSLPVNDGLESSFTGMKKKKKKPTESSLLNNESVDAGEDLDEIANDEQEGEEGIVLQQRYPWEGSERDYIYDELLGRVFNILRENNPELAGDRRRTVMRPPQVLREGTKKTVFVNFMDLCKTMHRQPDHVMQYLLAELGTSGSLDGQQRLVVKGRFAPKNFEGILRRYITDYVICLGCKSPDTILSKENRLFFLRCEKCGSQRSVAPIKTGFVARVSRRKT
B2: eIF2β-cYFP (protein, UniProt Q41969 1-268)
chain: MADEINEIREEQEQLAPFDPSKKKKKKKVVIQEPVEDLAESSQTEKSDSLPVNDGLESSFTGMKKKKKKPTESSLLNNESVDAGEDLDEIANDEQEGEEGIVLQQRYPWEGSERDYIYDELLGRVFNILRENNPELAGDRRRTVMRPPQVLREGTKKTVFVNFMDLCKTMHRQPDHVMQYLLAELGTSGSLDGQQRLVVKGRFAPKNFEGILRRYITDYVICLGCKSPDTILSKENRLFFLRCEKCGSQRSVAPIKTGFVARVSRRKT

Assays:
[1] = target: CDC123-nLUC (Arabidopsis thaliana); experiment: split reporter; split luciferase complementation (SLCA): CDC123-nLUC with eIF2 subunit-cLUC, transient expression in N. benthamiana for 40 hr
[2] = target: CDC123-nYFP (Arabidopsis thaliana); experiment: split reporter; BiFC: CDC123-nYFP with eIF2 subunit-cYFP, transient expression in N. benthamiana for 40 hr, laser scanning microscopy

| binding [1] | binding [2] | Binder |
| --- | --- | --- |
| binds |  | B1 |
|  | binds | B2 |
